These are yes or no findings as the source states them, for the method shown. Some results given as binding are weak or reduced against the parent protein; the word gives no strength.
Target: human LRP6 construct E1 (amino acids A20-D325) (human) (UniProt O75581)
Experiment: synthetic peptides, competition IC50 (FIG. 19)

Sequences of proteins named here, by UniProt entry; tags and fusion partners are left off. Residues count along the entry.
UniProt O75581, residues 20-325: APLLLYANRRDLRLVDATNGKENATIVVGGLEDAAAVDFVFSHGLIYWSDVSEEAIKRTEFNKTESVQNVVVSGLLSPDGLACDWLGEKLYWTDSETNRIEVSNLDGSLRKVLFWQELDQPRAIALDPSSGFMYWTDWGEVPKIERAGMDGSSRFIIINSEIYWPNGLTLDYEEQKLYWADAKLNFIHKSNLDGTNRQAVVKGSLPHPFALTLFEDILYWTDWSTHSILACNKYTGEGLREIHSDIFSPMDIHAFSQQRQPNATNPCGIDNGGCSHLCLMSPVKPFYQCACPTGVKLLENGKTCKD

binding: binds
B1: Ac-SNSIKFYA-am with Val in place of Ile (peptide)
peptide: SNSVKFYA
modifications: N-terminal acetyl; C-terminal amide

From US20140235820A1, “METHODS AND COMPOSITIONS FOR MODULATING THE Wnt PATHWAY” (Genentech, Inc., priority 2010, published 2014)
